Source: PMC12507957 (Drug Delivery and Translational Research, 2025)

Assay: Mass balance studies after 48-h skin permeation of MTG in solvents
Assay type: in vitro ADME, porcine
Conditions: MTG in PG, no receptor medium
Method: The in vitro permeation study was performed in triplicate using Franz diffusion cell apparatus with a diffusion area of ~ 0.8 cm^2 and a receptor volume of ~ 3 mL. The porcine skin was thawed at room temperature and cut into an appropriate size before mounting on the Franz diffusion cells. The receptor compartment was filled with PBS containing 0.02%w/v of sodium azide and a selected antioxidant. The Franz diffusion cells were placed into a water bath to maintain the skin temperature at 32 ± 0.5 °C. […] After 48-h permeation studies, the mass balance studies were performed.
Subsequently, the surface of the skin was washed twice with 500 μL of methanol before adding to the same Eppendorf tube containing the cotton buds. The skin was removed from the dissembled Franz diffusion cell and cut into pieces before placing in another Eppendorf tube containing 1 mL of methanol. All samples were vortexed and analysed using HPLC (Sect. HPLC analysis).
Samples were analysed using Shimadzu liquid chromatographic system (Kyoto, Japan) with SPD-20A UV–vis detector set at 254 nm. A reverse phase ZORBAX Eclipse Plus C18 column (Agilent Technologies, 150 × 4.6 mm ID × 3.5 μm) coupled with a C18 guard column (Phenomenex SecurityGuard™, 4 × 3.0 mm ID × 5 μm) was employed as the stationary phase. […]

SMILES: CC[C@@H]1CN2CCc3c([nH]c4cccc(OC)c34)[C@@H]2C[C@@H]1/C(=C\OC)C(=O)OC [MTG, mitragynine]
- MTG in the skin (validation of surface wiping procedure) (immediately post-application): no detection
- Percentage recovery of MTG in skin surface washes (validation of surface wiping procedure) (swabbed immediately post-application, n = 3): 100.97 ± 0.07%
